The target of test [1] is T1, Phospholipid scramblase-1 (PLSCR1), expressed from a plasmid in HEK293 cells (UniProt O15162).
T1 sequence: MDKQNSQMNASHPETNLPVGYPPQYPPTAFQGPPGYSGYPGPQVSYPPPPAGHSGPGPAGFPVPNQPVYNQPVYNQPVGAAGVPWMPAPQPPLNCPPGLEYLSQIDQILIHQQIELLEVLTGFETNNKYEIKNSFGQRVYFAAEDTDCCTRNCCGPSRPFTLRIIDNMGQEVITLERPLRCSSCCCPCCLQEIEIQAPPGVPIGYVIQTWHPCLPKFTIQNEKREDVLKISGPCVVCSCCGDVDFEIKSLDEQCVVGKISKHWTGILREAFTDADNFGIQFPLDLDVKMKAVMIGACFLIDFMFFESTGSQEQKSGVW
As to the kind of experiment: co-IP; HEK293 cells transfected with CRTH2 and PLSCR1 plasmids; lysates immunoprecipitated with anti-CRTH2 and blotted with anti-PLSCR1, or the opposite; Catch and Release V2.0.

The target in test [2] is T2, Phospholipid scramblase-1 (Plscr1), endogenous in mouse lung (mouse (endogenous in lung)) (UniProt Q9JJ00).
T2 sequence: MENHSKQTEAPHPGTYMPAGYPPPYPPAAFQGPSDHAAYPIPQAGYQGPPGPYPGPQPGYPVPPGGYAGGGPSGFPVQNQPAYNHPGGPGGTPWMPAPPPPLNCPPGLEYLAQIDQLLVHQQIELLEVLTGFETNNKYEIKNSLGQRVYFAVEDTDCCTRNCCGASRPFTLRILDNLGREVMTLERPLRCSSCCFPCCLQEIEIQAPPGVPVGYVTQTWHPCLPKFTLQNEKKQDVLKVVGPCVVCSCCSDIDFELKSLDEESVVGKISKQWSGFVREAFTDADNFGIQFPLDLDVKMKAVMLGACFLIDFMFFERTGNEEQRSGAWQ
As to the kind of experiment: co-IP; mouse lung protein lysates (WT mice; also IL-13 Tg mice, where the interaction became weaker) immunoprecipitated with anti-CRTH2 and blotted with anti-PLSCR1, or the opposite; Catch and Release V2.0.

In test [3] the target is T3, Chemoattractant receptor-homologous molecule expressed on Th2 cells (CRTH2), endogenous in mouse lung (mouse (endogenous in lung)) (UniProt Q9Z2J6).
T3 sequence: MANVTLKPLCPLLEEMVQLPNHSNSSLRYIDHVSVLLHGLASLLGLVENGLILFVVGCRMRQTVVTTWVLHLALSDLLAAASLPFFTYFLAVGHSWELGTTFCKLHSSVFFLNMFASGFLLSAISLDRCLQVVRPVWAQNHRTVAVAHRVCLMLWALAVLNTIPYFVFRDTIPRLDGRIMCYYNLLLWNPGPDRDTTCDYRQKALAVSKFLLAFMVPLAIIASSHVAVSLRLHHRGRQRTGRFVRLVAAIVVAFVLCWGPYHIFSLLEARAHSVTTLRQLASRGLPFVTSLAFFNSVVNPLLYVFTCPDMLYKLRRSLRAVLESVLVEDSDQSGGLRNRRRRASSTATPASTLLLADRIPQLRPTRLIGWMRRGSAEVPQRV
Described as above.

Test [4] concerns the target T4, Chemoattractant receptor-homologous molecule expressed on Th2 cells (CRTH2), expressed from a plasmid in HEK293 cells (UniProt Q9Y5Y4).
T4 sequence: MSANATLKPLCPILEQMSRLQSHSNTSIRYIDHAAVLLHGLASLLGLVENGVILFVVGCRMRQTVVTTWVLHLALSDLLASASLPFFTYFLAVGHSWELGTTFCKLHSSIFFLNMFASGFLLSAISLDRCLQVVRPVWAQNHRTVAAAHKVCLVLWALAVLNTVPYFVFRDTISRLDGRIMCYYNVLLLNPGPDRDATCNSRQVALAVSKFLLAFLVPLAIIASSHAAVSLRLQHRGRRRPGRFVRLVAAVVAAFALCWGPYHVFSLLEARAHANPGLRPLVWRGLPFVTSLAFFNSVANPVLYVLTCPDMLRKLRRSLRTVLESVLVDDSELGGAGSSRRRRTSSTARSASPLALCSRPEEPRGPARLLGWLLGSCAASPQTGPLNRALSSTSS
The experiment in a line: co-IP; HEK293 cells transfected with CRTH2 and PLSCR1 plasmids; lysates immunoprecipitated with anti-CRTH2 and blotted with anti-PLSCR1, or the opposite; Catch and Release V2.0.

These are yes or no findings as the source states them, for the method shown. In cells and extracts the contact can be indirect. Some binding calls cover weakened binding; strength is not graded here.

B1: Chemoattractant receptor-homologous molecule expressed on Th2 cells (CRTH2), expressed from a plasmid in HEK293 cells (receptor, UniProt Q9Y5Y4 1-395)
chain: MSANATLKPLCPILEQMSRLQSHSNTSIRYIDHAAVLLHGLASLLGLVENGVILFVVGCRMRQTVVTTWVLHLALSDLLASASLPFFTYFLAVGHSWELGTTFCKLHSSIFFLNMFASGFLLSAISLDRCLQVVRPVWAQNHRTVAAAHKVCLVLWALAVLNTVPYFVFRDTISRLDGRIMCYYNVLLLNPGPDRDATCNSRQVALAVSKFLLAFLVPLAIIASSHAAVSLRLQHRGRRRPGRFVRLVAAVVAAFALCWGPYHVFSLLEARAHANPGLRPLVWRGLPFVTSLAFFNSVANPVLYVLTCPDMLRKLRRSLRTVLESVLVDDSELGGAGSSRRRRTSSTARSASPLALCSRPEEPRGPARLLGWLLGSCAASPQTGPLNRALSSTSS
As to B1, in test [1], the binding entry is reported as “binds”.

B2: Chemoattractant receptor-homologous molecule expressed on Th2 cells (CRTH2), endogenous in mouse lung (receptor, UniProt Q9Z2J6 1-382)
chain: MANVTLKPLCPLLEEMVQLPNHSNSSLRYIDHVSVLLHGLASLLGLVENGLILFVVGCRMRQTVVTTWVLHLALSDLLAAASLPFFTYFLAVGHSWELGTTFCKLHSSVFFLNMFASGFLLSAISLDRCLQVVRPVWAQNHRTVAVAHRVCLMLWALAVLNTIPYFVFRDTIPRLDGRIMCYYNLLLWNPGPDRDTTCDYRQKALAVSKFLLAFMVPLAIIASSHVAVSLRLHHRGRQRTGRFVRLVAAIVVAFVLCWGPYHIFSLLEARAHSVTTLRQLASRGLPFVTSLAFFNSVVNPLLYVFTCPDMLYKLRRSLRAVLESVLVEDSDQSGGLRNRRRRASSTATPASTLLLADRIPQLRPTRLIGWMRRGSAEVPQRV
For B2, in test [2], the binding entry is recorded as “binds”.

B3: Phospholipid scramblase-1 (Plscr1), endogenous in mouse lung (protein, UniProt Q9JJ00 1-328)
chain: MENHSKQTEAPHPGTYMPAGYPPPYPPAAFQGPSDHAAYPIPQAGYQGPPGPYPGPQPGYPVPPGGYAGGGPSGFPVQNQPAYNHPGGPGGTPWMPAPPPPLNCPPGLEYLAQIDQLLVHQQIELLEVLTGFETNNKYEIKNSLGQRVYFAVEDTDCCTRNCCGASRPFTLRILDNLGREVMTLERPLRCSSCCFPCCLQEIEIQAPPGVPVGYVTQTWHPCLPKFTLQNEKKQDVLKVVGPCVVCSCCSDIDFELKSLDEESVVGKISKQWSGFVREAFTDADNFGIQFPLDLDVKMKAVMLGACFLIDFMFFERTGNEEQRSGAWQ
For the molecule B3, in test [3], the binding entry is reported as “binds”.

B4: Phospholipid scramblase-1 (PLSCR1), expressed from a plasmid in HEK293 cells (protein, UniProt O15162 1-318)
chain: MDKQNSQMNASHPETNLPVGYPPQYPPTAFQGPPGYSGYPGPQVSYPPPPAGHSGPGPAGFPVPNQPVYNQPVYNQPVGAAGVPWMPAPQPPLNCPPGLEYLSQIDQILIHQQIELLEVLTGFETNNKYEIKNSFGQRVYFAAEDTDCCTRNCCGPSRPFTLRIIDNMGQEVITLERPLRCSSCCCPCCLQEIEIQAPPGVPIGYVIQTWHPCLPKFTIQNEKREDVLKISGPCVVCSCCGDVDFEIKSLDEQCVVGKISKHWTGILREAFTDADNFGIQFPLDLDVKMKAVMIGACFLIDFMFFESTGSQEQKSGVW
As for B4, the binding result in test [4] is “binds”.
